Measured values from PMC7327512.
These are yes or no findings as the source states them, for the method shown. Sequences can lack the tags named with a protein.

Protein sequences, listed by entry. Tags and fused reporters are not part of them. Lines headed by an entry give the natural chain unless they say otherwise; changes in a name come on top.
UniProt O15230: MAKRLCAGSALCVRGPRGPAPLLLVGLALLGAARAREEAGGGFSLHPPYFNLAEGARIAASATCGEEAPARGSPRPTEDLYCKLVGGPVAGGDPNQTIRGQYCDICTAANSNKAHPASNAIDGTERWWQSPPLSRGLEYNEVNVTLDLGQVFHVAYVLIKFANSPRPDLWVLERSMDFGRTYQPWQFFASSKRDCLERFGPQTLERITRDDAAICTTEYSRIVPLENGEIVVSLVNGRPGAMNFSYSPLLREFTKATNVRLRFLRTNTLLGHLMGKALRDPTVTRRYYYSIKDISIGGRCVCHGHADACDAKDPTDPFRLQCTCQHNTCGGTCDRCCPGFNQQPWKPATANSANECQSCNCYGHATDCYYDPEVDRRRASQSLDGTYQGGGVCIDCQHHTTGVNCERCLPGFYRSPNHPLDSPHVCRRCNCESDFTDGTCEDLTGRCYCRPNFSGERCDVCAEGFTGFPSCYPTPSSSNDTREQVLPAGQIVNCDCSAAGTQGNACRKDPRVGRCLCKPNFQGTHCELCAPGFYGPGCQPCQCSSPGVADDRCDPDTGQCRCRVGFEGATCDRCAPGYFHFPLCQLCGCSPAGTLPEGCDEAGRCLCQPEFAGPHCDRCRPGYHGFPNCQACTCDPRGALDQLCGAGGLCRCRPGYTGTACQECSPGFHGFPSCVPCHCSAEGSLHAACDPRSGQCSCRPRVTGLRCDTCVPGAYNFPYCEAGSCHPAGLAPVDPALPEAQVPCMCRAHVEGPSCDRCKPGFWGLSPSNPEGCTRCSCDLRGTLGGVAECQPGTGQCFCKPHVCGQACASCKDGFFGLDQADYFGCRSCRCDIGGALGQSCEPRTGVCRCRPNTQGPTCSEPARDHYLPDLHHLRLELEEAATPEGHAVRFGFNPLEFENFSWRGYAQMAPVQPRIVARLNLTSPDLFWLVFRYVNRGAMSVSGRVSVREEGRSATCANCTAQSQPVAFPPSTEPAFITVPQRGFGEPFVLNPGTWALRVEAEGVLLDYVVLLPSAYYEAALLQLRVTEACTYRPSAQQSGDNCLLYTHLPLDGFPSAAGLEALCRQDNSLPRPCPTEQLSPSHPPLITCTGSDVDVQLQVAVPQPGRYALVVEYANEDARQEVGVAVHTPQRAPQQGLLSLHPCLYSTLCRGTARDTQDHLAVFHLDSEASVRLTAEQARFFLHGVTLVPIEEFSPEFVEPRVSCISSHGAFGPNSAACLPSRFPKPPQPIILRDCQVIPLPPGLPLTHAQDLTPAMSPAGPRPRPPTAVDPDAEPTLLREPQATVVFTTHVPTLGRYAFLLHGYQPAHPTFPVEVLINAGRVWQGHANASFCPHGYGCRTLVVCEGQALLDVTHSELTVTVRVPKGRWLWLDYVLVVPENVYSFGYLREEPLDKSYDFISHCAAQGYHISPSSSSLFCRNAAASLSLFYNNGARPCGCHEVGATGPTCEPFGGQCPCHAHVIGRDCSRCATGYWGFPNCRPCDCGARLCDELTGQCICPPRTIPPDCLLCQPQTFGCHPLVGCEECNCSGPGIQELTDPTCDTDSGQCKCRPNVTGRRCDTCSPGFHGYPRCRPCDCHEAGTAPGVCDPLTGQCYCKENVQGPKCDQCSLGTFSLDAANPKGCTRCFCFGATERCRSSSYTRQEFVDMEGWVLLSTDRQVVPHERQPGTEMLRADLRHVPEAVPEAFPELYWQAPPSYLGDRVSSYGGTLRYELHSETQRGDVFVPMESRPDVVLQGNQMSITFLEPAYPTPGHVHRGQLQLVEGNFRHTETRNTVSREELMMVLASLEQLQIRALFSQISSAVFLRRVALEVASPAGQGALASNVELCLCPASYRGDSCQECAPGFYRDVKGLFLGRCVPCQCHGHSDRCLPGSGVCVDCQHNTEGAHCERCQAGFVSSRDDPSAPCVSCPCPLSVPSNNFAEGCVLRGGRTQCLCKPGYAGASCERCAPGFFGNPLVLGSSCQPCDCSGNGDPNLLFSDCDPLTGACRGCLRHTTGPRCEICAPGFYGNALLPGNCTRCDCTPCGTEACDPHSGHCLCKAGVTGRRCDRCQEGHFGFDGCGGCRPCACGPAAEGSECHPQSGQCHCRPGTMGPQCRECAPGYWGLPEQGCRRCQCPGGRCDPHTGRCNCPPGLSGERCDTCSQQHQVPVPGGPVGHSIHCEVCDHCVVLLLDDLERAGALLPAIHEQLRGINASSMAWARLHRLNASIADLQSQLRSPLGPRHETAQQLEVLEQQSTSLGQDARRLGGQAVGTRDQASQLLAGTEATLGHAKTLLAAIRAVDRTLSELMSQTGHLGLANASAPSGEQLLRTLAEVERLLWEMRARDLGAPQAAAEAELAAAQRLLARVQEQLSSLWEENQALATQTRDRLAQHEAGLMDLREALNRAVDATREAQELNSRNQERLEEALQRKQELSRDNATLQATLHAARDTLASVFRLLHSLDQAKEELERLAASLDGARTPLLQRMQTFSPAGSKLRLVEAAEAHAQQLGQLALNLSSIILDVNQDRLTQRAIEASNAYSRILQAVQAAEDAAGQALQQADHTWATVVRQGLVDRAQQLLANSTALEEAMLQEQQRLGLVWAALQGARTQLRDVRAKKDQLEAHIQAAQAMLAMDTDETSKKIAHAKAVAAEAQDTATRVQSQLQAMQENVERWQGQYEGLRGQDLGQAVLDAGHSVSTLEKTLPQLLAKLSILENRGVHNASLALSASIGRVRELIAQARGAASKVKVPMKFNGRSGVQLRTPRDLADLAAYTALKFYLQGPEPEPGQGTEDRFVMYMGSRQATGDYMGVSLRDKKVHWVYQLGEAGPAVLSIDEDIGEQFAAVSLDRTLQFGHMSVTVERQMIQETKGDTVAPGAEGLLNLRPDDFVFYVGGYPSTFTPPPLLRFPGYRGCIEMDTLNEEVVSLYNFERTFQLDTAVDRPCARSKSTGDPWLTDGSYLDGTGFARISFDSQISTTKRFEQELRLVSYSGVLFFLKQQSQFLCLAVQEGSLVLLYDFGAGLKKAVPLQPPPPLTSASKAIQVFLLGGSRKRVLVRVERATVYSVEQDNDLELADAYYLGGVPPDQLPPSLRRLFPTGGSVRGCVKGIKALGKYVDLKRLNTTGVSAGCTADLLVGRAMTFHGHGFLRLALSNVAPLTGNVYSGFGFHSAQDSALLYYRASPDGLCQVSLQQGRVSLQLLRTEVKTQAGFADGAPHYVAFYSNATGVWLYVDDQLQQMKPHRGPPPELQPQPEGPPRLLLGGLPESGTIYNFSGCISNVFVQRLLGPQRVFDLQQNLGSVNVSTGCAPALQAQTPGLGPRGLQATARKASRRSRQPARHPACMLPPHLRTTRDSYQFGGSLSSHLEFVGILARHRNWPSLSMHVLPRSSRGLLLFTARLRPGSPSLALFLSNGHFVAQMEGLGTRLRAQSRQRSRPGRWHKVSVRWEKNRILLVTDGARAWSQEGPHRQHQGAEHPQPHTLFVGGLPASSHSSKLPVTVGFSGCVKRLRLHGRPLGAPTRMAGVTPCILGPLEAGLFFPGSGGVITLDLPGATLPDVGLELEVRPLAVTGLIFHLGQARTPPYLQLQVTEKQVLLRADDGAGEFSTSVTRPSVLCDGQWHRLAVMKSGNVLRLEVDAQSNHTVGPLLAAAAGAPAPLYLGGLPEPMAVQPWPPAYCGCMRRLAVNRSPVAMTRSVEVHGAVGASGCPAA
UniProt P11047: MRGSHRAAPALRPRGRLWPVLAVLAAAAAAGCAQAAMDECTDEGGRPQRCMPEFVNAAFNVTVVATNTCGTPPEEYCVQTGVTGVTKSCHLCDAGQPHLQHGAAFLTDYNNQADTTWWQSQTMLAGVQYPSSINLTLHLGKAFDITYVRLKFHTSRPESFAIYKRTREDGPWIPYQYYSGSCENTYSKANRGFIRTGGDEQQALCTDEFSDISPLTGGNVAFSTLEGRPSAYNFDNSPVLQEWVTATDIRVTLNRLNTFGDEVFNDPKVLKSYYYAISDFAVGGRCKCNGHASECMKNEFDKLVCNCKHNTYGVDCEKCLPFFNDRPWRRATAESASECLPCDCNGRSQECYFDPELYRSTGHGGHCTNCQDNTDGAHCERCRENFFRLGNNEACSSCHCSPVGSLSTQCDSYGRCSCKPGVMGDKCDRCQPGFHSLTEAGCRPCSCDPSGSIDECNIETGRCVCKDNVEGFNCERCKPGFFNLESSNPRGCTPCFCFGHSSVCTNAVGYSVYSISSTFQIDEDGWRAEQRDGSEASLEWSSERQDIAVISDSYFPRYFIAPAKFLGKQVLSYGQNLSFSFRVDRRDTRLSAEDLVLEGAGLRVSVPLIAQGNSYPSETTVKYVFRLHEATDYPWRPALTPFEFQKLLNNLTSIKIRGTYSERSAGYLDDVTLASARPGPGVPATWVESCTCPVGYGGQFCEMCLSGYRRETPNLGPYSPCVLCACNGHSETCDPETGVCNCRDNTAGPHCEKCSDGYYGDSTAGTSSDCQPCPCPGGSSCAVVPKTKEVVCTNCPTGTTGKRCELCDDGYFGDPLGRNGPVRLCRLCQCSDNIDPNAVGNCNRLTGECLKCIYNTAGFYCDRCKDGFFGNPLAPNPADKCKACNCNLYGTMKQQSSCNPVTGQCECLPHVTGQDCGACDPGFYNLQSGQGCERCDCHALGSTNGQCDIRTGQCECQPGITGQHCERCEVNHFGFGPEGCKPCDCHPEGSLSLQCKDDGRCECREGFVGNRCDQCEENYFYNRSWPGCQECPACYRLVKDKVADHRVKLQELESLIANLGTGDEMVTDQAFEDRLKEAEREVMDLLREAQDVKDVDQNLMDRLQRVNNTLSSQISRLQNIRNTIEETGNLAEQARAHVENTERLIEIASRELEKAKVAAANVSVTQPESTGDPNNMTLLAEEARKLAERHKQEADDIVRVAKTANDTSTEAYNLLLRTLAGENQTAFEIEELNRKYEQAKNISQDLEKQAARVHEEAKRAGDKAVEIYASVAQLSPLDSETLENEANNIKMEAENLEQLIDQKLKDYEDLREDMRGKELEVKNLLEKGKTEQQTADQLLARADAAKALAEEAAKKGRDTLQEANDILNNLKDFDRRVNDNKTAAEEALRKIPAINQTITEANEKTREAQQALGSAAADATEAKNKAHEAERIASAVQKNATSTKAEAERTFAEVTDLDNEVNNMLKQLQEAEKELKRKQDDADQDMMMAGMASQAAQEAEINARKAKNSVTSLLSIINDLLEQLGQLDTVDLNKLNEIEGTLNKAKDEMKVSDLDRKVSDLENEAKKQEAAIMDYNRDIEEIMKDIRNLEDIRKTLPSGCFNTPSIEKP

Experiments:
[1] = molecular target: recombinant human laminin-521 (laminin α5β2γ1) (human) (UniProt O15230+P55268+P11047); experiment: ligand affinity purification of integrin adhesion complexes, western blot; podocytes spread on dishes coated with ECM ligand or apotransferrin (10 μg/ml); cross-linker DTBP 6 mM for 3 min; cell bodies removed with Triton X-100 extraction buffer and water wash; complexes left bound to the substrate resolved by SDS-PAGE and blotted; only the target purified
[2] = molecular target: recombinant human laminin-511 (laminin α5β1γ1) (human) (UniProt O15230+P07942+P11047); experiment: as above

binding [1]: no binding | binding [2]: no binding
B1: Bcl-2 homologous antagonist/killer (protein, UniProt Q16611 1-211)
chain: MASGQGPGPPRQECGEPALPSASEEQVAQDTEEVFRSYVFYRHQQEQEAEGVAAPADPEMVTLPLQPSSTMGQVGRQLAIIGDDINRRYDSEFQTMLQHLQPTAENAYEYFTKIATSLFESGINWGRVVALLGFGYRLALHVYQHGLTGFLGQVTRFVVDFMLHHCIARWIAQRGGWVAALNLGNGPILNVLVVLGVVLLGQFVVRRFFKS
